Data taken from article PMC11137178, “Protein disulfide isomerase-9 interacts with the lumenal region of the transmembrane endoplasmic reticulum stress sensor kinase, IRE1, to modulate the unfolded protein response in Arabidopsis” (Frontiers in Plant Science, 2024).
Substitutions are numbered along the chain they refer to. Names and notes keep the numbering of the source. No constants are given. Whether binding was seen depends on the method and setting. In cells and extracts the contact can be indirect. Some binding calls cover weakened binding; strength is not graded here. Where a sequence is shown, tags or fusion partners need not be part of it.

B1: GFP : IRE1A(C257A) (receptor, UniProt Q9C5S2 31-841)
chain: DDVTYPIVPSSPGRRSILQIRREPPTEPNTKLVVDRDGKVFLKQQPKETPYWSFSTGSPMHSLYQAPANNNTENATEITRPHIIVEYLNNSKAATTVDGYHNWTVQEFFRQKPLVTDDGVTLGSETTSAYLVDGRSGRLIHVYKSTGDTKITNALVKPASTEDFVNEPLLIRRTDSKLEHFSKTTGKLVWNLTVSHFRAALLCDPVFNSGYDLGPKLQTGIYMPLLAGSQIDVRGPEIVIRVLHDQPMNVKMLPSPSLNHFESENSIMPFGKARESRKLQEQHKQKYTYLFGQWSPVKLLAPLVLLGVVVSVFIKKFSSRGSDVSLKAGPSKKKKNRKSAKDTNRQSVPRGQDQFELIEGGQMLLGFNNFQSGATDGRKIGKLFLSSKEIAKGSNGTVVFEGIYEGRPVAVKRLVRSHHEVAFKEIQNLIASDQHTNIIRWYGVEYDQDFVYLSLERCTCSLDDLIKSYLEFSMTKVLENNDSTEGVAAYKIQLDSLEGVIKGNNFWKVGGHPSPLMLKLMRDIVCGIVHLHELGIVHRDLKPQNVLISKDMTLSAKLSDMGISKRMSRDMSSLGHLATGSGSSGWQAPEQLLQGRQTRAVDMFSLGCVIFYTITGCKHPFGDDLERDVNIVKNKVDLFLVEHVPEASDLISRLLNPDPDLRPSATEVLLHPMFWNSEMRLSFLRDASDRVELENREADSEILKAMESTAPVAIGGKWDEKLEPVFITNIGRYRRYKYDSIRDLLRVIRNKLNHHRELPPEIQELVGTVPEGFDEYFAVRFPKLLIEVYRVISLHCREEEVFRKYFKCDII
B2: GFP : IRE1B(C222A) (receptor, UniProt Q93VJ2 22-881)
chain: FKGSEISKFYDKSISNQISQSDRESGYVLVSTVDGSISLVDMSSQKLDWTFHTNEPIYSSYQAPHYHYTTDEERSSVLGDDFYMDCDKDWRLYNSSVRKGKRVNEIVDASEFIGTLPYTSTDRIVLGKKDTSVFLLDWKTGKLVKRYRMDELYSNTVVENDKEKAIVLSKEAPLLFGSGFKKSEDFPELVYIERKDFKIQAISKFGDVLWSVSYAKMEAKLQNHESVQFISGLSSSVGKNQFPLSYTTSVPMVQLRNVKYETLFPRLGFLDEALYLPFQDRKPNQLAIGDGNQLTLPGNKEAEEVLSLPLPETVISQITDIIDGSTKQAGFASKFSGLIVLIFGFCVTMLSVCGLFFYRLRQSIRIKEPYVSEVPIATPKKKKSKKNGTTKAVHKKENGFISGGNKDPSHEENEKRLLTAFPGLNNSSAEGYRVGKLFVSNKEIAKGSNGTVVLEGSYEGRLVAVKRLVQSHHDVAQKEILNLMASDKHSNIVRWYGVDQDEHFIYISLELCACSLNDLIYASSALLESPMASSSIHSIQINPIFENGKGVELWKENGHPSPVLLKLMRDIVAGLVHLHDIGIVHRDLKPQNVLIVKNSSLCAKLSDMGISKRLPADTSALTRNSTGLGSGSSGWQAPEQLRNERQTRAVDLFSLGCVLFFCMTGGKHPYGDNYERDVNVLNDQKDLFLIESLPEAVHLLTGLLNPDPNLRPRAQDVMHHPLFWNSDMRLSFLRDASDRVELENREEGSQLLAALESTAAVTLNGRWDEKLDSIFLDNIGRYRRYKFDSIRDLLRVIRNKLNHYRELPKELQELLGSVPEGFERYFSSRFPKLLIQVYTVLFDYCNNEEFFFKYSKTTVF
B3: GFP : IRE1A (receptor, Arabidopsis thaliana, UniProt Q9C5S2 31-841, looked up)
chain: B1 chain with A227C
notes: IRE1A (inositol-requiring enzyme-1 kinase), Arabidopsis thaliana, At2g17520; mature polypeptide region amplified from Col-0 genomic DNA and placed after the IRE1A signal peptide and GFP; Construct order: IRE1A signal peptide, GFP, mature IRE1A; source: Arabidopsis leaf mesophyll protoplasts, transiently transfected; in living cells (FLIM-FRET) and in protoplast extract (co-I.P.); not shown: GFP …
B4: GFP : IRE1B (receptor, Arabidopsis thaliana, UniProt Q93VJ2 22-881, looked up)
chain: B2 chain with A201C
notes: IRE1B, Arabidopsis thaliana, At5g24360; mature polypeptide region amplified from Col-0 genomic DNA and placed after the IRE1B signal peptide and GFP; Construct order: IRE1B signal peptide, GFP, mature IRE1B; source: Arabidopsis leaf mesophyll protoplasts, transiently transfected; in living cells (FLIM-FRET) and in protoplast extract (co-I.P.); not shown: GFP (eGFP S65T), N-terminal, kept

How the values were obtained:
PDI9:mCherry-KDEL = target: T1, PDI9:mCherry-KDEL (Arabidopsis thaliana, UniProt O48773 25-440); test: FRET or BRET; FLIM-FRET in living Arabidopsis leaf mesophyll protoplasts coexpressing the GFP donor (on IRE1) and the mCherry acceptor (on PDI9), 16-18 h after transfection; GFP lifetime per region of interest; E = (1 - ti/t0) x 100% against single-transfected GFP:IRE1
T1 construct: Protein disulfide isomerase-9 (PDI9, PDI-M subfamily), Arabidopsis thaliana, At2g32920; made from the earlier construct PDI9:GFP-KDEL (Yuen et al., 2013) by exchanging GFP for mCherry; also called PDI9:Cherry-KDEL; PDI9:RFP; source: Arabidopsis leaf mesophyll protoplasts, transiently transfected, in living cells; not shown: mCherry-KDEL, C-terminal, kept
T1 sequence (looked up): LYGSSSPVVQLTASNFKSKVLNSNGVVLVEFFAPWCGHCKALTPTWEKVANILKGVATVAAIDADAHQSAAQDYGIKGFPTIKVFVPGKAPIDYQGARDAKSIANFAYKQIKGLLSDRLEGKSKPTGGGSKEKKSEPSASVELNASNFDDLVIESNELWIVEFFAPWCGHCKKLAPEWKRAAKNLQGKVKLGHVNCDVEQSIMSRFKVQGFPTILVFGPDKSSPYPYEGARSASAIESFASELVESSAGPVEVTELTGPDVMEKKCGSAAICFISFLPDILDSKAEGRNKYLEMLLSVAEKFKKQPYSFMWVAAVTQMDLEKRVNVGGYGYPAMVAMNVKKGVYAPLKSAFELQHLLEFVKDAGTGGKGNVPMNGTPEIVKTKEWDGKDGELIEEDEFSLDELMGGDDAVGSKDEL

[1] = target: T2, HA : PDI9 (Arabidopsis thaliana) (UniProt O48773); test: co-IP; extracts of Col-0 protoplasts cotransfected with HA:PDI9 and GFP:IRE1A or GFP:IRE1B; nonreducing buffer (10 mM HEPES pH 7.5, 100 mM NaCl, 1 mM EDTA, 10% glycerol, 0.5% Triton X-100); anti-HA magnetic beads, 3 h, 4°C; blots with anti-HA and anti-GFP
T2 sequence: T1 sequence (looked up)

[2] = target: T3, PDI9(C195A):mCherry-KDEL (Arabidopsis thaliana) (UniProt O48773); test: FRET or BRET; FLIM-FRET in living Arabidopsis leaf mesophyll protoplasts coexpressing the GFP donor (on IRE1) and the mCherry acceptor (on PDI9), 16-18 h after transfection; GFP lifetime per region of interest; E = (1 - ti/t0) x 100% against single-transfected GFP:IRE1
T3 sequence: T1 sequence (looked up) with C171A

Binder	binding (PDI9:mCherry-KDEL)	binding [1]	binding [2]
B1	binds	–	–
B2	binds	–	–
B3	–	binds	binds
B4	–	binds	binds
